These are yes or no findings as the source states them, for the method shown. Binding seen in cells or lysates may run through a third protein. Some results given as binding are weak or reduced against the parent protein; the word gives no strength.
Target: GFP-tagged RPL11 (Drosophila) (UniProt P46222)
Assay: co-IP; IP of GFP-tagged RPL11 (Act5C-Gal4>UAS-Rpl11.GFP) from OTUD6.FLAG.HA or OTUD6^C183A.FLAG.HA flies in the presence of cycloheximide, western for HA, RPS7 and GFP

B1: RPS7 (ubiquitination state not told) (protein, UniProt Q9VA91 1-194)
chain: MAIGSKIIKPGGSDPDDFEKSIAQALVELEANSDLKPYLRDLHITRAREIEFGSKKAVIIYVPIPQQKVFQKIQIILVRELEKKFSGKHVVVIAERKILPKPTRKARNPLKQKRPRSRTLTAVYDAILEDLVFPAEIVGKRIRVKLDGSQLVKVHLDKNQQTTIEHKVDTFTSVYKKLTGRDVTFEFPDNYLNV
B1 was tested, and the binding was “binds”.

— publication PMC11316749
